{
  "sequences": {"note": "Chains of the proteins cited; added tags and fusions are not shown.", "UniProt P09471, whole entry, looked up": "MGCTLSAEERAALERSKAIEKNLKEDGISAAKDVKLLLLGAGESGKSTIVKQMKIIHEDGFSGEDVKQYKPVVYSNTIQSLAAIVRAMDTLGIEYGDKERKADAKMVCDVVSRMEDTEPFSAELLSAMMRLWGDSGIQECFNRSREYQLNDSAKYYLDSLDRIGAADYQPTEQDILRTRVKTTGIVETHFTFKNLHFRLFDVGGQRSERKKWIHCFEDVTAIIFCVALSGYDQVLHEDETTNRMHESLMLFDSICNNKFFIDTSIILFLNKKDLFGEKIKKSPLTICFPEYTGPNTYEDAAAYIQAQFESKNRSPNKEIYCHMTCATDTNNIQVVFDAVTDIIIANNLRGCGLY"},
  "source": "PubChem BioAssay AID1439",
  "about": "(NMMLSC, 2008)",
  "note": "Screen size: about 220,000 compounds; about 770 (0.35%) were called active. Inconclusive results, whose numbers are uncertain, are shown with a selection of clear calls. Rule as the data show it: active = binding response below about 49% or above about 150%; inconclusive = no clear call, values can overlap the other calls; inactive = in between.",
  "data": [
    {"target": "Guanine nucleotide-binding protein G(o) subunit alpha (Homo sapiens) (UniProt P09471)", "assay": "compounds changing RGS7 association with Galphao – biochemical, multiplexed bead flow cytometry, primary screen (AID 1439);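 also: fluorescent Galphao held in activated GDP-AlF4 state binding bead-coupled RGS7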", "conditions": "at 10 µM, actives lie on both sides", "values": [
      {"compound": "COCCCn1c(N)c(C(=O)NCc2ccco2)c2nc3ccccc3nc21", "binding response (% of control)": "inconclusive: 112%"},
      {"compound": "C#CCOc1ccc2c(c1)c(C(C)=O)c(C)n2Cc1ccccc1", "binding response (% of control)": "inconclusive: 108%"},
      {"compound": "C/C(=N\\N(C)c1ccccc1)c1c(O)[nH]c(=O)[nH]c1=O", "binding response (% of control)": "inconclusive: 74.1%"},
      {"compound": "Cc1ccc(C)c(C2(O)CC(C)N(C)CC2C)c1", "note": "(centres undefined)", "binding response (% of control)": "inactive: 105%"},
      {"compound": "CCN(CC)c1ccc(/C=C2/C(=O)NC(=O)N(CC3CCCO3)C2=O)cc1", "note": "(centres undefined)", "binding response (% of control)": "inactive: 100%"},
      {"compound": "C=C1C(=O)O[C@H]2[C@H]1[C@H](OC(=O)CC(=O)O[C@@H]1C[C@@H](C)[C@@H]3C=CC(=O)[C@@]3(C)[C@H]3OC(=O)C(=C)[C@H]13)C[C@@H](C)[C@H]1C=CC(=O)[C@]12C", "binding response (% of control)": "inconclusive: 84.7%"},
      {"compound": "C=CCn1c(O)c(/C(C)=N/N2CCN(C)CC2)c(=O)[nH]c1=O", "binding response (% of control)": "inconclusive: 124%"},
      {"compound": "CCn1c(O)c(/C=N/NC(=O)c2ccccc2)c(=O)n(CC)c1=S", "binding response (% of control)": "inconclusive: 74%"},
      {"compound": "COc1ccccc1CN1CCN(Cc2ccc(Cl)cc2)CC1", "binding response (% of control)": "inactive: 106%"},
      {"compound": "O=c1c2ccc(Cl)cc2[nH]c(=S)n1-c1cccnc1", "binding response (% of control)": "inactive: 109%"},
      {"compound": "CC(=O)NNC(=O)CN1C(=O)CN=C(c2ccccc2)c2cc(Br)ccc21", "binding response (% of control)": "inactive: 97.7%"},
      {"compound": "C=CCn1c(O)c(/C(C)=N/NC(=S)Nc2ccccc2)c(=O)[nH]c1=O", "binding response (% of control)": "inconclusive: 26.2%"},
      {"compound": "CC(C)Cc1nnc(NC(=O)CCC(=O)N2CCC3(CC2)OCCO3)s1", "binding response (% of control)": "inconclusive: 94.7%"},
      {"compound": "O=c1c2ccccc2nc(-c2ccccc2)n1-c1ccccc1", "binding response (% of control)": "inconclusive: 91.8%"},
      {"compound": "CCCCn1c(O)c(C(CC)=NCCCn2ccnc2)c(=O)[nH]c1=O", "binding response (% of control)": "inconclusive: 33.8%"},
      {"compound": "Fc1cccc(F)c1-c1nc(-c2ccc(Cl)cc2)no1", "binding response (% of control)": "inconclusive: 37.2%"},
      {"compound": "CN(C)C1(c2nnnn2CCOC(=O)Nc2ccc(Cl)cc2)CCCCC1", "binding response (% of control)": "inactive: 96.2%"},
      {"compound": "CC(C)(C)n1cc(C(=O)c2ccccc2)cc1-c1ccccc1", "binding response (% of control)": "inconclusive: 86.2%"},
      {"compound": "C=CC[N+]1(C)C2CCC1CC(O)C2", "note": "(centres undefined)", "binding response (% of control)": "inactive: 102%"},
      {"compound": "CC(=O)C1C2c3ccccc3OC1(C)N=c1s/c(=C/c3cn(C)nc3C)c(=O)n12", "note": "(centres undefined)", "binding response (% of control)": "inactive: 101%"},
      {"compound": "CCOC(=O)[C@]1(C#N)[C@@H]2C=CC(C(N)=O)=CN2[C@@H](C(N)=O)[C@@H]1c1ccc(F)cc1", "binding response (% of control)": "inconclusive: -97.1%"},
      {"compound": "CC1(C)OC(c2ccccc2)=C/C(=C/C=C2C(=O)NC(=S)NC2=O)O1", "binding response (% of control)": "inconclusive: 95.9%"},
      {"compound": "OC(CCNCCc1c[nH]c2ccccc12)C(F)(F)Cl", "note": "(centres undefined)", "binding response (% of control)": "inactive: 99.4%"},
      {"compound": "CCc1nnc(NS(=O)(=O)c2ccc(N=Cc3c(O)n(-c4ccccc4)c(=O)[nH]c3=O)cc2)s1", "binding response (% of control)": "inconclusive: 110%"}
    ]}
  ]
}
